# Assay results: PubChem BioAssay AID1259354 (Paczesny and Yang Labs, IUPUI and University of Michigan, 2018)
# By UniProt entry, the sequences of proteins in these tests, tags left out. Where a name states a change or a piece, a line headed by the entry shows the natural chain unless it says otherwise.
# UniProt Q01638: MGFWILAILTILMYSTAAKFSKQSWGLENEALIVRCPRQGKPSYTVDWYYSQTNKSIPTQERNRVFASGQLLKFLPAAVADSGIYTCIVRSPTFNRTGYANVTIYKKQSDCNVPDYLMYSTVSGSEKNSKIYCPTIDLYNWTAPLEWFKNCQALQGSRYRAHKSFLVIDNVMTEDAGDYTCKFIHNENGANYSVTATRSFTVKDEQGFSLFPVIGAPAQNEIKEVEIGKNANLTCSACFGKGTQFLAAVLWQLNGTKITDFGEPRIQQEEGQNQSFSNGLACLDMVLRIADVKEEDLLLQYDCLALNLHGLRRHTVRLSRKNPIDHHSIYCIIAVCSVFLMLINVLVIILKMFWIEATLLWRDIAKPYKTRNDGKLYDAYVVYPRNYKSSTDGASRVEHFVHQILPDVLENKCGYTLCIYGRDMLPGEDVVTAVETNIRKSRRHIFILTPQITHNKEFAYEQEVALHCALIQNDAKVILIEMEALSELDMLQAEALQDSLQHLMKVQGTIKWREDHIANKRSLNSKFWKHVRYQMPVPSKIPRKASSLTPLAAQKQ
# Values joined by “and” are separate entries in the source; they are usually repeats but may differ in a detail not shown here. Equal values may be shown once. Out of some 78,000 compounds screened, about 1,800 (2.3%) were called active. Inconclusive means that the source gave no clear call. Such entries were picked first, then a sample of the others. No stated cut-off is given here; in the data, active means inhibition above about 30%; inconclusive means mostly about 10% to 28%; inactive means weaker than that.
# Target: Interleukin-1 receptor-like 1 (Homo sapiens) (UniProt Q01638)
# Assay: blocks human ST2 binding to IL-33, primary screen, biochemical, AlphaLISA (AID 1259354)
# Settings: AlphaLISA ST2-Fc/biotin-IL-33 interaction, 1 h; at 17 µM, stronger effect = higher value
row,Structure (SMILES),inhibition
1,CCCOCCOC(=O)C1=C(C)NC2=C(C(=O)C(C(=O)OC)C(C)C2)C1c1ccc(C)cc1 (stereo not given),inconclusive: 16%
2,NNc1nnc2c(n1)[nH]c1ccccc12,active: 31%
3,COc1ccc(N2CCN(Cc3ccc(OC)c(C)c3OC)CC2)cc1,inconclusive: 12%
4,CCN(CC)CCNc1nc2c(c(=O)n(C)c(=O)n2C)n1Cc1c(Cl)cccc1Cl,inactive
5,CC(=O)NCCc1ccccc1,inconclusive: 11%
6,Nc1c(C(=O)O)sc2nc(C3CC3)cc(C(F)(F)F)c12,inconclusive: 20%
7,NCCS(=O)O,inconclusive: 14%
8,CCN(CCNS(=O)(=O)c1ccc2c(c1)CCN2C(=O)C1CC1)c1ccccc1,inconclusive: 17%
9,COc1cc2c3c(c1)C(C)=CC(C)(C)N3C(=O)C2=O,active: 74% and active: 70%
10,COc1ccc2oc(=O)c3c(c2c1)CC(C(F)(F)F)S3 (stereo not given),inactive
11,C=CCOc1ccc(C(Nc2ccccn2)c2ccc3ccc(C)nc3c2O)cc1 (stereo not given),inconclusive: 21%
12,Cc1cccc2c(-c3ccc(O)c(F)c3)c[nH]c12,inconclusive: 14%
13,CCC(=O)N1c2ccccc2NC2=C(C(=O)CCC2)C1c1ccc(C)cc1 (stereo not given),inconclusive: 10%
14,CC(=O)N1CCc2nc(C)nc(N(C)CCN3CCOCC3)c2CC1,inconclusive: 19%
15,COc1cc(OC)c(OC)cc1CN1CCN(c2ccccc2F)CC1,inconclusive: 16%
16,OCCNc1ncnc2oc(-c3ccccc3)c(-c3ccccc3)c12,active: 35%
17,CC(C)CCNC(=O)c1cc2c(-c3ccc(Cl)cc3)nn(C)c2s1,inconclusive: 11%
18,Cc1nc(-c2ccncc2)ncc1C(C)NC(=O)CN1CCCCC1 (stereo not given),inconclusive: 11%
19,CCN(CC)c1ccc(-c2c(C#N)c(N)nc(OC)c2C#N)cc1,inactive
20,Cc1cc(NCCS(=O)(=O)N(C)C)nc(-c2cccnc2)n1,inconclusive: 18%
21,O=C1c2ccccc2C(=O)N1CC(O)COc1ccc2ccccc2c1 (stereo not given),inactive
22,Cc1ccc(C(=O)c2cccc(N)c2)cc1C,inconclusive: 15%
23,COC(=O)CC1CC2=C(C(=O)c3c(O)cccc3C2=O)C(C)O1 (stereo not given),inconclusive: 18%
24,COc1ccc2c(c1)sc(=NC(=O)c1ccc(S(=O)(=O)N3CCCC(C)C3)cc1)n2C (stereo not given),inactive

row,Structure (SMILES),inhibition
1,Cc1cc2c(Nc3ccccc3C)ncnc2s1,inconclusive: 14%
2,CCN(c1cccc(C)c1)S(=O)(=O)c1cccc2cccnc12,inconclusive: 16%
3,Cc1cccc(S(=O)(=O)N2CCN(c3nc(C)cc(Nc4ccccc4)n3)CC2)c1,inconclusive: 27%
4,COc1ccc(N2CCN(Cc3nc4c(c(=O)[nH]c(=O)n4C)n3CCCO)CC2)cc1,inactive
5,Cc1cc(-c2cccc3ccnn23)ccc1NC(=O)c1cccnc1,inactive
6,CCOc1ccc(NS(=O)(=O)c2ccc3[nH]c(=O)sc3c2)cc1,inactive
7,N#C/C(=C\N1CCOCC1)c1ccccc1,inconclusive: 12%
8,CCN(CC)c1ccc(N=Cc2ccccc2O)cc1,active: 79%
9,CC(C)Cc1nc(CN(C)Cc2ncc[nH]2)no1,inactive
10,COc1ccc(C(=O)NCCn2cc(SCc3ccccc3F)c3ccccc32)cc1,inactive
11,CN(C)c1ccc(-c2nnnn2[C@H]2CO[C@H]3[C@@H]2OC[C@H]3O)cc1,inconclusive: 10%
12,CCOc1ccc(Nc2cc(C)nc(N3CCOCC3)n2)cc1,inconclusive: 10%
13,COc1ccc(NS(=O)(=O)c2cccc(N)c2)cc1,inconclusive: 18%
14,CC(NC1CCN(c2ccc(NC(=O)Cc3cccc(Cl)c3)cc2)CC1)c1cccs1 (stereo not given),inconclusive: 17%
15,Cc1nc(SC2CCCCC2=O)c(C#N)c(-c2cccs2)c1C(=O)Nc1ccccc1 (stereo not given),inconclusive: 10%
16,Cc1c(N=Cc2ccc(N(C)C)cc2)c(=O)n(-c2ccccc2)n1C,inconclusive: 14%
17,CCOc1ccc(S(=O)(=O)N2CCC(N3CCCCC3)CC2)c2cccnc12,inconclusive: 23%
18,Nc1ccncc1-c1cc(NCc2ccccn2)nc2[nH]ccc12,inconclusive: 15%
19,O=C([C@@H](O)Cc1ccccc1)N1CCCn2cncc2C1,inactive
20,Nc1ccc(Oc2cccc(Oc3ccc(N)cc3)c2)cc1,inconclusive: 27%
21,Clc1ccccc1Cc1noc(CN2CCN(Cc3ccccc3)CC2)n1,inconclusive: 13%
22,CCN(CC)CCCN1C(=O)CSC1c1ccc2c(c1)OCO2 (stereo not given),inconclusive: 22%
23,O=C(C1CC1)N1CCc2cc(Br)cc(S(=O)(=O)Nc3cccc4c3CCCC4)c21,inconclusive: 18%
24,Cc1ccc(CNCc2cccnc2Oc2ccccc2C)s1,inconclusive: 10%

# Four neighbouring compounds from above, quoted:
row,Structure (SMILES),inhibition
10,COc1ccc(C(=O)NCCn2cc(SCc3ccccc3F)c3ccccc32)cc1,inactive
11,CN(C)c1ccc(-c2nnnn2[C@H]2CO[C@H]3[C@@H]2OC[C@H]3O)cc1,inconclusive: 10%
12,CCOc1ccc(Nc2cc(C)nc(N3CCOCC3)n2)cc1,inconclusive: 10%
13,COc1ccc(NS(=O)(=O)c2cccc(N)c2)cc1,inconclusive: 18%

# Next part

row,Structure (SMILES),inhibition
1,N#C/C(=C\c1ccc(O)cc1)c1nc(-c2ccc3c(c2)OCO3)cs1,inconclusive: 10%
2,COC[C@H]1CCCN1[C@@H]1[C@H](O)[C@H](CO)O[C@@H]1CN(Cc1ccc(F)cc1)Cc1ccc(F)cc1,inactive
3,Cc1ccc(-c2nnc([C@H]3CCN(C(=O)C4CC4)C3)o2)cc1,inconclusive: 12%
4,CCC(Sc1nnnn1-c1ccccc1)C(=O)Nc1ccc([N+](=O)[O-])cc1 (stereo not given),inconclusive: 10%
5,C=CCN(Cc1ccc(C)s1)C(=O)[C@@H](N)Cc1cscn1,inconclusive: 11%
6,COc1ccc(C(=O)N(C)CC2CCN(CCc3ccc(Cl)cc3)CC2)c(OC)n1,inactive
7,CCCc1ccc(CN2CC[C@H](CO)[C@@H](O)C2)o1,inconclusive: 21%
8,Cc1cccc(NC(c2ccccc2F)c2ccc3ccc(C)nc3c2O)n1 (stereo not given),inconclusive: 12%
9,CC1CC(=O)C2=C(C1)OC(N)=C(C#N)C2c1ccc(F)c(F)c1 (stereo not given),inactive
10,Cc1nc2nc(-c3ccccc3)nn2c(Sc2ccccc2NC(=O)Nc2ccc(F)cc2)c1C,inconclusive: 21%
11,COc1ccccc1/C=C/C1=NC(=C\c2cccs2)/C(=O)O1,inconclusive: 29%
12,COc1cc(-c2ccc3ncnc(N4CCN(C)CC4)c3c2)cc(OC)c1OC,inconclusive: 11%
13,CCOc1ccc(-c2cn(-c3ccc(Cl)cc3)c(=O)[nH]2)cc1Cl,inactive
14,O=C1C=C(/C=C/c2ccccc2)C[C@H](c2ccccc2)[C@H]1n1nnc([N+](=O)[O-])n1,active: 58%
15,C=CCc1ccccc1OCC(O)CN1CCN(c2ccccc2OC)CC1 (stereo not given),inconclusive: 17%
16,COc1ccc(CCNC(=O)c2ccc(Cn3nnc4ccsc4c3=O)cc2)cc1OC,inconclusive: 16%
17,Cc1cc(CNC(=O)c2ccccc2-n2cncn2)c2[nH]c(C)c(C)c2c1,inactive
18,CC(C)(O)C#Cc1cccc(C(=O)NCc2ccc3c(c2)OCCCO3)c1,inconclusive: 12%
19,CCN(CC)CCNC(=O)CCc1nc(-c2ccc(C)cc2)no1,inactive
20,O=C(NC1CCCCC1)O[C@@H]1CO[C@H]2[C@@H]1OC[C@@H]2NC(=S)NC1CCCCC1,inactive
21,COc1ccc(CN2CCC(O)CC2)cc1,inconclusive: 24%
22,COC1=Nc2ccccc2/C1=C\N(C)C,inconclusive: 13%
23,COc1ccc(CN2C[C@H](O)C[C@H]2c2nc(CS(=O)(=O)c3ccc(C)cc3)no2)c(OC)c1OC,inconclusive: 29%
24,O=C(/C=C/c1ccccc1)N1CCC(c2nc(-c3cccnc3)ncc2-c2ccccc2)CC1,inconclusive: 10%

row,Structure (SMILES),inhibition
1,O=C(CNS(=O)(=O)c1cccs1)N1CCc2ccccc21,inactive
2,O=C(CCS(=O)(=O)c1cc(Br)cc2c1N(C(=O)C1CC1)CC2)N1CCOCC1,inactive
3,Cc1ccccc1C(=O)Nc1cccc(N=Cc2ccc([N+](=O)[O-])cc2)c1,inconclusive: 11%
4,COc1cc(N2C[C@H]3CC=C(C)C[C@H]3C2)ncn1,inconclusive: 12%
5,COc1ccc(-c2oc3cc(O[C@@H]4O[C@@H](C)[C@H](O)[C@@H](O)[C@H]4O)cc(O)c3c(=O)c2O[C@@H]2O[C@H](CO)[C@@H](O)[C@H](O)[C@H]2O)cc1,inconclusive: 13%
6,COc1ccc(-c2csc(/C(C#N)=C/c3cccs3)n2)cc1,active: 50%
7,CC(C)CCN1CC(C(=O)NC2CCCCC2)CC1=O (stereo not given),inactive
8,Cc1cc(N2CCCCC2)nc(N2CCN(S(=O)(=O)c3cc(C)c(C)cc3C)CC2)n1,inconclusive: 15%
9,CCc1nn2cc(-c3ccccc3)nc2s1,inconclusive: 18%
10,O=[N+]([O-])c1cccc(S(=O)(=O)Nc2cccnc2Cl)c1,inactive
11,CC(C)NC(=O)c1cccn1-c1nnc(N2CCCCC2)s1,inactive
12,Cc1cc2cc(C(=O)NCCc3csc(-c4ncccn4)n3)ccc2o1,inconclusive: 16%
13,O=C(CN1C(=O)CC(c2ccccc2)Sc2ccccc21)c1ccccc1 (stereo not given),inactive
14,CC(C)Cc1nc2cc(NS(=O)(=O)N(C)C)cc(C(=O)N3CCc4ccccc4C3)c2n1C,inactive
15,Cc1ccc(-c2cccc(C(=O)NCCSc3nnnn3C)c2)o1,inconclusive: 16%
16,Cc1c(Cl)cccc1NC(=O)CN1CCN(C(=O)c2ccco2)CC1,inactive
17,CCOc1ccc(OCCOCCN2CCOCC2)cc1,inconclusive: 12%
18,Cc1ccc(NC(=O)CSc2nc(C)cc(C)c2C#N)c(C)c1,inconclusive: 11%
19,CC(=O)c1ccc(NC(=O)c2cc(-c3ccc(Br)cc3)on2)cc1,inconclusive: 14%
20,Cc1cccn2c(=O)c3cc(C(=O)NCc4ccccc4)n(C)c3nc12,inconclusive: 10%
21,N=C1/C(=C/c2cn(CCCOc3ccccc3Cl)c3ccccc23)C(=O)N=C2SC=CN12,inconclusive: 21%
22,COC(=O)c1c(NC(=O)c2cccc(C(F)(F)F)c2)sc2c1CCN(C)C2,inconclusive: 21%
23,COCCCNC(=O)c1cnc(N2CCN(c3ccccc3OC)CC2)c2ccccc12,inconclusive: 10%
